The subject of this data set is mGluR5. The data set is described as follows: Brain PET in cynomolgus monkey (HRRT), VT by 2TC model and Logan GA. The class given is in vivo. How it is done: Two male cynomolgus monkeys (NHP1: 5460 g and NHP2: 7080 g) were used in this study. […] Anesthesia was induced by intramuscular injection of ketamine hydrochloride (approximately 10 mg/kg) at AFL and maintained by intravenous infusion of ketamine (4 mg/kg/h) and xylazine (0.4 mg/kg/h) with a pump. The NHP head was immobilized with a fixation device. […] Heart rate, blood pressure, respiratory rate, and oxygen saturation were continuously monitored throughout the experiments. Fluid balance was maintained by continuous infusion of saline.
PET measurements were conducted using a High Resolution Research Tomograph (HRRT) PET scanner (Siemens Molecular Imaging, Knoxville, TN). […]
An automated blood sampling system (ABSS) was used to measure the continuous radioactivity for the first 3 min after the radioligand injection. Then, blood sampling was performed manually for the measurement of metabolism and radioactivity at 5, 15, 30, 60, 90, and 120 min after the injection. […]
As the main outcome measure, the total distribution volume (VT) defined as (K1/k2)(k3/k4 + 1) by the two tissue compartment (2TC) model and Logan graphical analysis (GA) was calculated with the metabolite corrected plasma radioactivity as the input function. […]

“And” between values parts separate entries of the source, which are not always exact repeats. Equal entries are not always repeated.

As for `N#Cc1cc(F)cc(-c2nc(-c3ccc([18F])cn3)no2)c1` [^18F-AZD9272, 3-fluoro-5-(3-(5-[^18F]fluoropyridin-2-yl)-1,2,4-oxadiazol-5-yl)benzonitrile], the “Bias of VT with shortened measurement” value (at 75 min, both 2TC and GA) is no more than 3%. Besides, the “VT by GA lower than VT by 2TC” value (per animal (two NHPs)) was 11% and 6%.

Source of the values: publication PMC7309225, “Synthesis, Biodistribution, and Radiation Dosimetry of a Novel mGluR5 Radioligand: ^18F-AZD9272” (ACS Chemical Neuroscience, 2020).
